In article PMC6189040 one finds binding data, which are given here for two molecules.

Protein sequences, listed by entry. Tags and fused reporters are not part of them. Residues count along the entry.
UniProt P04608, residues 1-72: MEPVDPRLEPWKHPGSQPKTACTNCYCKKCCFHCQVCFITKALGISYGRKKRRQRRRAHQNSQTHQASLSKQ
UniProt O60563, residues 1-280: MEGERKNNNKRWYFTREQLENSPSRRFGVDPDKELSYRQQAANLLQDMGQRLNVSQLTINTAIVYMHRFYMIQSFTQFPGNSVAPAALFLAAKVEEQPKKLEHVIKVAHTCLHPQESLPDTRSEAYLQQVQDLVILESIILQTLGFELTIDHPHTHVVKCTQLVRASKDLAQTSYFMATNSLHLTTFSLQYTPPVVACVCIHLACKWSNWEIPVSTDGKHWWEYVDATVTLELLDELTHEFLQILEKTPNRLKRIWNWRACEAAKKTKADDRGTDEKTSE

Assay [1] has as its target HIV-1 Tat (1-72) (HIV-1) (UniProt P04608). Nature of the assay: co-purification (Ni-NTA affinity, then SEC); three proteins co-expressed in High-five cells; lysate in 50 mM sodium phosphate pH 7.4, 300 mM NaCl, 10% glycerol, 0.1% 2-mercaptoethanol, 0.1% CHAPS; captured on Ni-NTA by His-Tat and His-GB1-AFF4, tags cleaved with TEV, second Ni-NTA, Superdex200 in 25 mM HEPES pH 7.5, 200 mM NaCl, 1 mM DTT, 5% glycerol.

For assay [2], the target named is T1, AFF4 (32-67) (UniProt Q9UHB7).
T1 sequence: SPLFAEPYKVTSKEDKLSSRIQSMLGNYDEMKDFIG
Described as above.

No constants are given. Whether binding was seen depends on the method and setting. Some binding calls cover weakened binding; strength is not graded here.

On to “Cyclin T (1-280) (from UniProt O60563 1-280) (domain or fragment)”, for which the binding entry in assay [1] and in assay [2] was “binds” throughout.

As for SPLFAEPYKVTSKEDKLSSRIQSMLGNYDEMKDFIG (domain or fragment, UniProt Q9UHB7 32-67) [AFF4 (32-67)], the binding result in assay [1] was “binds”.
